Results on 4 substances are retold here after publication PMC4906405.

The chains behind the UniProt entries cited, without tags or fusion partners. Where a name states a change or a piece, a line headed by the entry shows the natural chain unless it says otherwise. A line that says so, or that is headed by a name, gives the form on record, which may keep a tag or linker. Residues count along the entry.
UniProt G1T469: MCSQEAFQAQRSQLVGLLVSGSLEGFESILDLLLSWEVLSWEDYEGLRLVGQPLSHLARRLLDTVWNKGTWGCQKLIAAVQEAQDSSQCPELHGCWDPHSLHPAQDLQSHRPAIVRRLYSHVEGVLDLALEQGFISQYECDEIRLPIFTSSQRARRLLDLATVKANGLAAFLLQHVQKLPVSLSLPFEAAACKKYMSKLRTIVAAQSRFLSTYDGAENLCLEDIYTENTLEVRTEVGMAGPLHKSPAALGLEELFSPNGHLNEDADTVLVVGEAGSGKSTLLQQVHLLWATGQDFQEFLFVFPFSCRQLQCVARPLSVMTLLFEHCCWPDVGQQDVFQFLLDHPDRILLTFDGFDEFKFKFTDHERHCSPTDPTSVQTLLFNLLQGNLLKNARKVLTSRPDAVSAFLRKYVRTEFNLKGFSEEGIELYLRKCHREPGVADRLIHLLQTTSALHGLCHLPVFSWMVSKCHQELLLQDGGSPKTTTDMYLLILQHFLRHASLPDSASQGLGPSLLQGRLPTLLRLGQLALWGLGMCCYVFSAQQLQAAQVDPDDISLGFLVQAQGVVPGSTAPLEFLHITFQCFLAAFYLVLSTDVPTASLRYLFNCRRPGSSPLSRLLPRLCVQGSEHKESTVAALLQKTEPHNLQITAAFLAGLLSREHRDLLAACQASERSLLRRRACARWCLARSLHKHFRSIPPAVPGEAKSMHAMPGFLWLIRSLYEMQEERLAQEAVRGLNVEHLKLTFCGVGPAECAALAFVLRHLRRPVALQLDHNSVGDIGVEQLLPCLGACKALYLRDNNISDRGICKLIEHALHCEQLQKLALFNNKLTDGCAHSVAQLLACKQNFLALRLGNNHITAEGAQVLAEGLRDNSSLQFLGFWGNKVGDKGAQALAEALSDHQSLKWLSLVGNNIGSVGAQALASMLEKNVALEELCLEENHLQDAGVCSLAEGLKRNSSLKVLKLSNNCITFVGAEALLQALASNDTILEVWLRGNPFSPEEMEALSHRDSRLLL
OcNOD2ΔCARDΔloop (OcNOD2ΔCARD with residues 245-251 and 626-635 deleted) (G1T469, form named): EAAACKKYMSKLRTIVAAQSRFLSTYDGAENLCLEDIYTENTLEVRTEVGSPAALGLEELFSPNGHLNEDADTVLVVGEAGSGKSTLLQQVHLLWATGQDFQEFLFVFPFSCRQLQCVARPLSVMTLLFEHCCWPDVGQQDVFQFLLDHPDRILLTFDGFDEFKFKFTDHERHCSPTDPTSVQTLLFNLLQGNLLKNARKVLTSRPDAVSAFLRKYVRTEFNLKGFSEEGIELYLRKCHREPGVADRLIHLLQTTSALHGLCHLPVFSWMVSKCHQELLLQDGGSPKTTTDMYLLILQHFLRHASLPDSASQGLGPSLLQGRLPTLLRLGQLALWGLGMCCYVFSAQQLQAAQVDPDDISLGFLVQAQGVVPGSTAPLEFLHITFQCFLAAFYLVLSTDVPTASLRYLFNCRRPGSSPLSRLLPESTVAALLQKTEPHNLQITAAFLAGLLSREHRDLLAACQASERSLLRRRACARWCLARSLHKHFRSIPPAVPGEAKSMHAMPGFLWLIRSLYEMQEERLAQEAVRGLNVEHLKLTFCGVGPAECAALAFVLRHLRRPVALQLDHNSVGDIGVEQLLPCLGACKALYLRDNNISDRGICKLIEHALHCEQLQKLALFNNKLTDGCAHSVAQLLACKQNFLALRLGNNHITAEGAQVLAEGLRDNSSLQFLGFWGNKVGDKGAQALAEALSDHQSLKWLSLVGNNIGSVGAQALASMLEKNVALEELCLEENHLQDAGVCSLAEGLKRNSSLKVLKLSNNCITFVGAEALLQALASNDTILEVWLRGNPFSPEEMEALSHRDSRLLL
OcNOD2ΔCARD^SER (OcNOD2ΔCARD with surface entropy reduction mutations) (G1T469, form named): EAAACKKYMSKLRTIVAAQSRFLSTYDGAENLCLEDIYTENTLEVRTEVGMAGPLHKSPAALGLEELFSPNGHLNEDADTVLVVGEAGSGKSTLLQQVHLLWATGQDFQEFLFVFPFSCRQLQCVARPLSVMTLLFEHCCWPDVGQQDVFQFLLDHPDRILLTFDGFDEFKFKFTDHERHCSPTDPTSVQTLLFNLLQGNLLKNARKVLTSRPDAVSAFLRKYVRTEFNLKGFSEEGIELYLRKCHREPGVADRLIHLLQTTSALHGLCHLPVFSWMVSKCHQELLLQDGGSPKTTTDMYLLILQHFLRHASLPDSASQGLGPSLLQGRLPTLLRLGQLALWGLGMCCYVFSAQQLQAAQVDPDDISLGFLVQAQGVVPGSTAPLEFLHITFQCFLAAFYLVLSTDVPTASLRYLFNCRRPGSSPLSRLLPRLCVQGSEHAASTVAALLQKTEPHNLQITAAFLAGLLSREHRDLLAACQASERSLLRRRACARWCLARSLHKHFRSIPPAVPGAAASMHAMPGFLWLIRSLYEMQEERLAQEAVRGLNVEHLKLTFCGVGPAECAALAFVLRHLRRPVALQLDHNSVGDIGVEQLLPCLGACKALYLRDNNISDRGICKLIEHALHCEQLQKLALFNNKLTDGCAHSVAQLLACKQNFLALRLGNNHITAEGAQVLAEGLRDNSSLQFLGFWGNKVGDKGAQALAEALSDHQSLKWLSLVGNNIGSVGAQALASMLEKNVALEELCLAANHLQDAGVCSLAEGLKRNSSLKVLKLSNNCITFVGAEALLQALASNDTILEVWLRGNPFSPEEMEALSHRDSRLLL

Assay in all cases: SEC; gel filtration chromatography of each purified NOD2 protein alone, in solution; both purified
In assay [1] the target is OcNOD2ΔCARDΔloop (OcNOD2ΔCARD with residues 245-251 and 626-635 deleted) (rabbit (Oryctolagus cuniculus)) (UniProt G1T469).
The target of assay [2] is full-length rabbit NOD2 (OcNOD2; residues 1-1,020) (rabbit (Oryctolagus cuniculus)) (UniProt G1T469).
For assay [3], the target named is OcNOD2ΔCARD^SER (OcNOD2ΔCARD with surface entropy reduction mutations) (rabbit (Oryctolagus cuniculus)) (UniProt G1T469).
Assay [4] addresses OcNOD2ΔCARD (OcNOD2 residues 195-1,020) (rabbit (Oryctolagus cuniculus)) (UniProt G1T469).

Results are given in words; binding and its absence hold for the method and conditions named.

Take “OcNOD2ΔCARDΔloop (OcNOD2ΔCARD with residues 245-251 and 626-635 deleted) (from UniProt G1T469 188-1013) (domain or fragment)”: the binding result in assay [1] is “no binding”.

For the substance “full-length rabbit NOD2 (OcNOD2; residues 1-1,020) (from UniProt G1T469 1-1013)”, the binding result in assay [2] is “no binding”. With “OcNOD2ΔCARD^SER (OcNOD2ΔCARD with surface entropy reduction mutations) (from UniProt G1T469 188-1013) (domain or fragment)”, the binding entry in assay [3] was “no binding”.

With “OcNOD2ΔCARD (OcNOD2 residues 195-1,020) (from UniProt G1T469 188-1013) (domain or fragment)”, in assay [4], the binding entry is on record as “no binding”.
